From paper PMC11271275, “The structural insight into the functional modulation of human anion exchanger 3” (Nature Communications, 2024) come the findings set out here.

These are yes or no findings as the source states them, for the method shown. Binding can be weak; no strength is given.

The assay addresses T1, Transmembrane domain (TMD) of human AE2, as it stands in the hAE3^NTD2^TMD chimera (human) (UniProt P04920).
T1 sequence: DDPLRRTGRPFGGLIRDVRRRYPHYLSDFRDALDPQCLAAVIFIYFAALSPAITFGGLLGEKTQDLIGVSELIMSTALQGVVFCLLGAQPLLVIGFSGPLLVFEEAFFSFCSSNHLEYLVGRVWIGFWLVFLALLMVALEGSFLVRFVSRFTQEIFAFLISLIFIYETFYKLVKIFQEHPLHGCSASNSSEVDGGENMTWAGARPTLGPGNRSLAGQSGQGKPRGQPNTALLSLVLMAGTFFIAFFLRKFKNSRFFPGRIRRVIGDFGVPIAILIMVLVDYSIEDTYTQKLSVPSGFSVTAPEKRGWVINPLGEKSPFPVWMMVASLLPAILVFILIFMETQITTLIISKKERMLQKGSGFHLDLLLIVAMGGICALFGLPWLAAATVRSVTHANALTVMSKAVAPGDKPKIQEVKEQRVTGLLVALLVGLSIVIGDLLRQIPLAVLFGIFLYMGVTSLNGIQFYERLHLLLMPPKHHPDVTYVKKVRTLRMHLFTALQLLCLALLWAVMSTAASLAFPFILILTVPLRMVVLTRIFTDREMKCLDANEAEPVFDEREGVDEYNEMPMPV
As to the kind of experiment: cryo-EM structure; hAE3^NTD2^TMD chimera in GDN; 300 kV Titan Krios, C2 symmetry; 3.35 Å; TMDs inward-facing; both purified.

“N-terminal domain (NTD) of human AE3, as it stands in the hAE3^NTD2^TMD chimera (domain or fragment)”: the binding result is “binds”.
